Source: doi:10.1101/2025.03.09.642136
These are yes or no findings as the source states them, for the method shown. In cells and extracts the contact can be indirect. Some entries that bind do so weakly or less than the wild type.

Amino acid sequences for entries named in this document (tags omitted).
UniProt P30559: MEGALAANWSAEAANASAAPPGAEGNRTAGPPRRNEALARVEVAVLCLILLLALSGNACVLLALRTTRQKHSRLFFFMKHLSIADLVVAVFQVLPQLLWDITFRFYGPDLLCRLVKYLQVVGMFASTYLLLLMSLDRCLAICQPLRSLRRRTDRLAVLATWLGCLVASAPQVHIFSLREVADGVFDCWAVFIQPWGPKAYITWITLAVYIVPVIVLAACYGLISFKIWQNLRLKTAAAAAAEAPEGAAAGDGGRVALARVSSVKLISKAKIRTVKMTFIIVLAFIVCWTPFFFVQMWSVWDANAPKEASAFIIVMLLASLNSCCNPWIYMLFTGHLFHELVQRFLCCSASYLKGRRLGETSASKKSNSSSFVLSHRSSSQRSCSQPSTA

Biological target: FLAG-tagged oxytocin receptor (OTR-FLAG) (UniProt P30559)
Assay: co-IP

Substance: HER2 (human epidermal growth factor receptor 2) (from UniProt P04626 23-1255)
- binding: binds
